Data taken from PMC3397946, “Identification and Characterization of the Cognate Anti-Sigma Factor and Specific Promoter Elements of a T. tengcongensis ECF Sigma Factor”.

Protein sequences, listed by entry. Tags and fused reporters are not part of them. Lines headed by an entry give the natural chain unless they say otherwise; changes in a name come on top.
UniProt Q8RCT7: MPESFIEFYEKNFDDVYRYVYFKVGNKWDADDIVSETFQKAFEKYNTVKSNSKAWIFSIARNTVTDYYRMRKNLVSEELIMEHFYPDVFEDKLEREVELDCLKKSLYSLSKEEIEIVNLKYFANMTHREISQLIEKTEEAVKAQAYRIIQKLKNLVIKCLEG
UniProt Q8RCT8: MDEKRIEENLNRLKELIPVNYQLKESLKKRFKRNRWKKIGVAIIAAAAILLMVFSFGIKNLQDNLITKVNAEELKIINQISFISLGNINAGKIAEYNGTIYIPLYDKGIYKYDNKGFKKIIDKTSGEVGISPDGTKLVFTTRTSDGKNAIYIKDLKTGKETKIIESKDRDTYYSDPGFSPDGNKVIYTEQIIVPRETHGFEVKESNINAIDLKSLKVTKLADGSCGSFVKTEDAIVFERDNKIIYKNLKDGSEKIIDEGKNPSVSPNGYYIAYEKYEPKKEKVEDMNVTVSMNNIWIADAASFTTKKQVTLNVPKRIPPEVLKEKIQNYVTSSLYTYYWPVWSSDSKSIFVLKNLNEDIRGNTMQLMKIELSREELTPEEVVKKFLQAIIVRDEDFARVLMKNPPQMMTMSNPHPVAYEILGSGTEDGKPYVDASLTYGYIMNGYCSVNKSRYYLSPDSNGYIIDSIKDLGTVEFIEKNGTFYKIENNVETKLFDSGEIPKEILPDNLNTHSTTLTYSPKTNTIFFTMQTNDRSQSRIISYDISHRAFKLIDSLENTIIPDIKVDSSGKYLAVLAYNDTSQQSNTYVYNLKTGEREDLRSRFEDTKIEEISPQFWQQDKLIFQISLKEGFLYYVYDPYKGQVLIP

Target: His-tagged Tt-RpoE1 (ECF sigma factor of T. tengcongensis) (Thermoanaerobacter tengcongensis) (UniProt Q8RCT7)
Experiment: native gel or EMSA; supershift of the complex of Tt-RpoE1 with 32P-labelled fork-junction promoter DNA (T+1/B-10); each protein 5 µM (equimolar); 25°C, 20 min; 50 mM Tris-HCl pH 8.0, 10 mM MgAc2, 30 mM NaCl, 1 mM DTT, 5% glycerol, 30 µg/ml BSA, 0.5 mM EDTA, poly(dI-dC); native 5% polyacrylamide gel; both purified

binding: binds
Substance: His-tagged Tt-TolB (anti-sigma factor of Tt-RpoE1) (from UniProt Q8RCT8)

Results are given in words; binding and its absence hold for the method and conditions named. Binding calls can cover weak binding; strength is not graded here.
